Here are results for four molecules from PMC10115824.

By UniProt entry, the sequences of proteins in these tests, tags left out. Residues count along the entry.
UniProt P13595, residues 20-1115: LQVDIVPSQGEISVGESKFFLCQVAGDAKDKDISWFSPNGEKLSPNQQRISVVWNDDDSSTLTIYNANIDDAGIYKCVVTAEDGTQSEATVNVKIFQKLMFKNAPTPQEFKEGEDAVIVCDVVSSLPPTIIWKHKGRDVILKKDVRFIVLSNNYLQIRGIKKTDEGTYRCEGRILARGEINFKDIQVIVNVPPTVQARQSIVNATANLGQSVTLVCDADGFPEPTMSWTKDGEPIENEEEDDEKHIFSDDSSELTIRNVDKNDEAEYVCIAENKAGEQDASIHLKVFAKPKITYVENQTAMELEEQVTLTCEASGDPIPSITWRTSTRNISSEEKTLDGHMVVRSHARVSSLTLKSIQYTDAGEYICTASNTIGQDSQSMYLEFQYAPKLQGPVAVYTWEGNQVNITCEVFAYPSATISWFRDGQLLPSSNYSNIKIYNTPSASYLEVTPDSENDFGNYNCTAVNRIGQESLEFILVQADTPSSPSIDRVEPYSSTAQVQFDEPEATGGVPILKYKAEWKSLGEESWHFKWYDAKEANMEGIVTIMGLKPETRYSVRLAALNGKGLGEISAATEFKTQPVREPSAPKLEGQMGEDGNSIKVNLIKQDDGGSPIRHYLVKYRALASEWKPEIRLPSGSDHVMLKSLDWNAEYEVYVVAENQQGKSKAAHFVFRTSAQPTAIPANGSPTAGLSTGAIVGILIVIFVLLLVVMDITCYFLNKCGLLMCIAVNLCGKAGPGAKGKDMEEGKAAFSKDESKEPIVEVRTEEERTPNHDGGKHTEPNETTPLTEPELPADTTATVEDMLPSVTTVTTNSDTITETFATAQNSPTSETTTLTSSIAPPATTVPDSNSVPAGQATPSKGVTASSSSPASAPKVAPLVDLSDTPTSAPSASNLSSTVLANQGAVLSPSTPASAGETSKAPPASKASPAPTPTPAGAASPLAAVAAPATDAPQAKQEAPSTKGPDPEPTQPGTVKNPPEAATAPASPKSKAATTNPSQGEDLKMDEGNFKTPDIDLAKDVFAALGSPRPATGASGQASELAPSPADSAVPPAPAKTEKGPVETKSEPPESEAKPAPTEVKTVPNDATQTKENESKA
UniProt P13596, residues 20-858: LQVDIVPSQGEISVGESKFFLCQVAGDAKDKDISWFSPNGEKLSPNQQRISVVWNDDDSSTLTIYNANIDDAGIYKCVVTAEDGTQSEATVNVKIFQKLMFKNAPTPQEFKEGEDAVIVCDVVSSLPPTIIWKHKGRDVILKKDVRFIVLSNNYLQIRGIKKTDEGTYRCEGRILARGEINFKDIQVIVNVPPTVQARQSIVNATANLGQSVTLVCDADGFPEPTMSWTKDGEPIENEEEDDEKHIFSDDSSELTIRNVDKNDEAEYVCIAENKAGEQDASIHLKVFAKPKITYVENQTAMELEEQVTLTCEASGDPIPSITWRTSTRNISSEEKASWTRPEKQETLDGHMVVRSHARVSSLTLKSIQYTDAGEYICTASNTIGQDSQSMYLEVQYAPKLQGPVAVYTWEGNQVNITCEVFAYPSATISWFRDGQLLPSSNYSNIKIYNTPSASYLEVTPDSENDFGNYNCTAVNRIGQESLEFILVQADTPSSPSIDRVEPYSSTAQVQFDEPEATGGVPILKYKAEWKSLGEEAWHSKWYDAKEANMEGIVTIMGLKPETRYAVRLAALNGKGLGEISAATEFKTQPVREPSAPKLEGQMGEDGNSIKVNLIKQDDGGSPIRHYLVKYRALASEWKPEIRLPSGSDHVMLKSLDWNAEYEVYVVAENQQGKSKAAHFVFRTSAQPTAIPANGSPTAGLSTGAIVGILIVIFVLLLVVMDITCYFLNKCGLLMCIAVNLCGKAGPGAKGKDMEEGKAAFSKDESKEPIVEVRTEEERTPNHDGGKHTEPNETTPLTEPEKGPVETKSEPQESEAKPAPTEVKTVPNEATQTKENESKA

Results are given in words; binding and its absence hold for the method and conditions named. In cells and extracts the contact can be indirect. Some entries that bind do so weakly or less than the wild type. For some of these results: Tags and fused reporters may be left off the sequences shown.

What all share (experiment): co-IP; reciprocal immunoprecipitations (anti-KLK8, anti-NCAM1) from rat hippocampus tissue and HT22 cell lysates, western blot; IgG as control
The target in experiment [1] is T1, Tissue kallikrein-related peptidase 8 (KLK8) in HT22 cells (not stated (HT22 murine cells; endogenous or from Ad-KLK8 not told)) (UniProt Q61955).
T1 sequence: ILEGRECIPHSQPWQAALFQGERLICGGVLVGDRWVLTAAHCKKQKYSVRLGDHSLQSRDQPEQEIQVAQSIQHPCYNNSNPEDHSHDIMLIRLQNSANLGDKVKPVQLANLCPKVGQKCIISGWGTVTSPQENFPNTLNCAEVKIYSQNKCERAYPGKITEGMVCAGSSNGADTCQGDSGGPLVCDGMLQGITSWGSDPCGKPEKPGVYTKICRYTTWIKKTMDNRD

Experiment [2] concerns the target T2, Tissue kallikrein-related peptidase 8 (KLK8) in rat hippocampus (not stated (rat hippocampus; species of the transgene not told)) (UniProt O88780).
T2 sequence: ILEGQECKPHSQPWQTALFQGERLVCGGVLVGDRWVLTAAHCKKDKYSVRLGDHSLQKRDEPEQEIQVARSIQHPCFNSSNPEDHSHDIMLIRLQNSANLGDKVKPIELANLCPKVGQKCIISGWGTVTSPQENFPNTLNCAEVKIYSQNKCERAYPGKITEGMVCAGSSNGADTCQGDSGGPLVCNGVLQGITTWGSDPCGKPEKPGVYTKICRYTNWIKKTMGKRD

The target in experiment [3] is Neural cell adhesion molecule 1 (NCAM1) in HT22 cells (mouse (endogenous in HT22)) (UniProt P13595).
Experiment [4] concerns the target Neural cell adhesion molecule 1 (NCAM1) in rat hippocampus (rat (endogenous in rat hippocampus)) (UniProt P13596).

Turning to “Neural cell adhesion molecule 1 (NCAM1) in HT22 cells (from UniProt P13595 20-1115)”, the binding result in experiment [1] is “binds”. Regarding “Neural cell adhesion molecule 1 (NCAM1) in rat hippocampus (from UniProt P13596 20-858)”, the binding entry in experiment [2] is given as “binds”.

B1: Tissue kallikrein-related peptidase 8 (KLK8) in HT22 cells (enzyme, UniProt Q61955 33-260)
chain: ILEGRECIPHSQPWQAALFQGERLICGGVLVGDRWVLTAAHCKKQKYSVRLGDHSLQSRDQPEQEIQVAQSIQHPCYNNSNPEDHSHDIMLIRLQNSANLGDKVKPVQLANLCPKVGQKCIISGWGTVTSPQENFPNTLNCAEVKIYSQNKCERAYPGKITEGMVCAGSSNGADTCQGDSGGPLVCDGMLQGITSWGSDPCGKPEKPGVYTKICRYTTWIKKTMDNRD
For B1, the binding result in experiment [3] is “binds”.

B2: Tissue kallikrein-related peptidase 8 (KLK8) in rat hippocampus (enzyme, UniProt O88780 33-260)
chain: ILEGQECKPHSQPWQTALFQGERLVCGGVLVGDRWVLTAAHCKKDKYSVRLGDHSLQKRDEPEQEIQVARSIQHPCFNSSNPEDHSHDIMLIRLQNSANLGDKVKPIELANLCPKVGQKCIISGWGTVTSPQENFPNTLNCAEVKIYSQNKCERAYPGKITEGMVCAGSSNGADTCQGDSGGPLVCNGVLQGITTWGSDPCGKPEKPGVYTKICRYTNWIKKTMGKRD
For B2, the binding entry in experiment [4] was “binds”.
